{"source": "the supplement of paper PMC8728848", "binders": {"B1": {"name": "OS9 (Arabidopsis thaliana) (protein)", "chain": "MRGSHHHHHHGMASMTGGQQMGRDLYDDDDKSRLQIFPAHLVGTFSRNNREPKYKIEFLPEDSPFHPGDNLESMVMLDKHGNRFLCYLPKEEKATSGWTSSQQNISTVMMETQQLVKLKTPDELLQPLSEKCLFRQEGWWSYEFCHQKYVRQLHVEDENKIVQEFFLGTFDPEATAAFNQTVSDASTDASQRYHSHVYTNGTTCDLTGSPREVEVRFVCAETRAMVTSITELSTCKYALTVQCPTLCKHPLFQLEKPVSHTIHCNAIPVEEDATRNKEEQAVDESPKMIADS"}}, "test_in_all_cases": "glycan array binding signal (z-score within array); higher = stronger binding", "details_in_all_cases": "glycan notation: IUPAC condensed, linker removed", "key": {"[1]": {"target": "Fuc(a1-2)Gal(b1-4)GlcNAc(b1-3)Gal(b1-4)GlcNAc(b1-3)Gal(b1-4)GlcNAc", "procedure,_shortened": "(§1)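 Glycan array data came from 3228 arrays in the Consortium for Functional Glycomics database, and only arrays with an available protein sequence were kept. Glycan names were put into IUPAC-condensed notation, and columns mapping to the same glycan were averaged. The binding signal is a within-array Z-score, averaged across arrays of one protein sequence run at different concentrations or buffers and across linkers. A negative Z-score can be read as non-binding.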"}, "[2]": {"target": "Fuc(a1-2)Gal(b1-4)GlcNAc(b1-3)GalNAc", "procedure,_shortened": "as §1"}, "[3]": {"target": "Fuc(a1-2)Gal(b1-4)GlcNAc(b1-3)[Fuc(a1-2)Gal(b1-4)GlcNAc(b1-6)]GalNAc", "procedure,_shortened": "as §1"}, "[4]": {"target": "Fuc(a1-2)Gal(b1-4)GlcNAc(b1-3)[Fuc(a1-3)[Gal(b1-4)]GlcNAc(b1-6)]Gal(b1-4)Glc", "procedure,_shortened": "as §1"}, "[5]": {"target": "Fuc(a1-2)Gal(b1-4)GlcNAc(b1-6)GalNAc", "procedure,_shortened": "as §1"}, "[6]": {"target": "Fuc(a1-2)Gal(b1-4)GlcNAc6S", "procedure,_shortened": "as §1"}, "[7]": {"target": "Fuc(a1-2)Gal(b1-4)[Fuc(a1-3)]GlcNAc", "procedure,_shortened": "as §1"}, "[8]": {"target": "Fuc(a1-2)Gal(b1-4)[Fuc(a1-3)]GlcNAc(b1-2)Man(a1-3)[Fuc(a1-2)Gal(b1-4)[Fuc(a1-3)]GlcNAc(b1-2)Man(a1-6)]Man(b1-4)GlcNAc(b1-4)[Fuc(a1-6)]GlcNAc", "procedure,_shortened": "as §1"}, "[9]": {"target": "Fuc(a1-2)Gal(b1-4)[Fuc(a1-3)]GlcNAc(b1-2)[Fuc(a1-2)Gal(b1-4)[Fuc(a1-3)]GlcNAc(b1-4)]Man(a1-3)[Fuc(a1-2)Gal(b1-4)[Fuc(a1-3)]GlcNAc(b1-2)Man(a1-6)]Man(b1-4)GlcNAc(b1-4)GlcNAc", "procedure,_shortened": "as §1"}, "[10]": {"target": "Fuc(a1-2)Gal(b1-4)[Fuc(a1-3)]GlcNAc(b1-3)Gal(b1-4)[Fuc(a1-3)]GlcNAc", "procedure,_shortened": "as §1"}, "[11]": {"target": "Fuc(a1-2)Gal(b1-4)[Fuc(a1-3)]GlcNAc(b1-3)Gal(b1-4)[Fuc(a1-3)]GlcNAc(b1-3)Gal(b1-4)[Fuc(a1-3)]GlcNAc", "procedure,_shortened": "as §1"}, "[12]": {"target": "Fuc(a1-2)Gal(b1-4)[Fuc(a1-3)]GlcNAc(b1-3)GalNAc", "procedure,_shortened": "as §1"}, "[13]": {"target": "Fuc(a1-2)Gal(b1-4)[Fuc(a1-3)]GlcNAc(b1-3)[Neu5Ac(a2-6)Gal(b1-4)GlcNAc(b1-6)]Gal(b1-4)Glc", "procedure,_shortened": "as §1"}, "[14]": {"target": "Fuc(a1-2)Gal3S(b1-4)GlcNAc", "procedure,_shortened": "as §1"}, "[15]": {"target": "Fuc(a1-2)Gal6S(b1-3)GlcNAc", "procedure,_shortened": "as §1"}, "[16]": {"target": "Fuc(a1-2)Gal6S(b1-3)GlcNAc6S", "procedure,_shortened": "as §1"}, "Fuc(a1-2)Gal6S(b1-4)Glc": {"target": "Fuc(a1-2)Gal6S(b1-4)Glc", "procedure,_shortened": "as §1"}, "[17]": {"target": "Fuc(a1-2)Gal6S(b1-4)Glc6S", "procedure,_shortened": "as §1"}, "Fuc(a1-2)[Gal(a1-3)]Gal": {"target": "Fuc(a1-2)[Gal(a1-3)]Gal", "procedure,_shortened": "as §1"}, "[18]": {"target": "Fuc(a1-2)[Gal(a1-3)]Gal(b1-3)GalNAc", "procedure,_shortened": "as §1"}, "[19]": {"target": "Fuc(a1-2)[Gal(a1-3)]Gal(b1-3)GalNAc(b1-3)Gal(a1-4)Gal(b1-4)Glc", "procedure,_shortened": "as §1"}, "[20]": {"target": "Fuc(a1-2)[Gal(a1-3)]Gal(b1-3)GlcNAc", "procedure,_shortened": "as §1"}, "[21]": {"target": "Fuc(a1-2)[Gal(a1-3)]Gal(b1-3)GlcNAc(b1-2)Man(a1-3)[Fuc(a1-2)[Gal(a1-3)]Gal(b1-3)GlcNAc(b1-2)Man(a1-6)]Man(b1-4)GlcNAc(b1-4)GlcNAc", "procedure,_shortened": "as §1"}, "[22]": {"target": "Fuc(a1-2)[Gal(a1-3)]Gal(b1-3)GlcNAc(b1-2)Man(a1-3)[Fuc(a1-2)[Gal(a1-3)]Gal(b1-3)GlcNAc(b1-2)Man(a1-6)]Man(b1-4)GlcNAc(b1-4)[Fuc(a1-6)]GlcNAc", "procedure,_shortened": "as §1"}, "[23]": {"target": "Fuc(a1-2)[Gal(a1-3)]Gal(b1-3)GlcNAc(b1-3)GalNAc", "procedure,_shortened": "as §1"}, "[24]": {"target": "Fuc(a1-2)[Gal(a1-3)]Gal(b1-3)GlcNAc(b1-6)GalNAc", "procedure,_shortened": "as §1"}, "[25]": {"target": "Fuc(a1-2)[Gal(a1-3)]Gal(b1-4)Glc", "procedure,_shortened": "as §1"}, "[26]": {"target": "Fuc(a1-2)[Gal(a1-3)]Gal(b1-4)GlcNAc", "procedure,_shortened": "as §1"}, "[27]": {"target": "Fuc(a1-2)[Gal(a1-3)]Gal(b1-4)GlcNAc(b1-2)Man", "procedure,_shortened": "as §1"}, "[28]": {"target": "Fuc(a1-2)[Gal(a1-3)]Gal(b1-4)GlcNAc(b1-2)Man(a1-3)[Fuc(a1-2)[Gal(a1-3)]Gal(b1-4)GlcNAc(b1-2)Man(a1-6)]Man(b1-4)GlcNAc(b1-4)GlcNAc", "procedure,_shortened": "as §1"}, "[29]": {"target": "Fuc(a1-2)[Gal(a1-3)]Gal(b1-4)GlcNAc(b1-2)Man(a1-3)[Fuc(a1-2)[Gal(a1-3)]Gal(b1-4)GlcNAc(b1-2)Man(a1-6)]Man(b1-4)GlcNAc(b1-4)[Fuc(a1-6)]GlcNAc", "procedure,_shortened": "as §1"}, "[30]": {"target": "Fuc(a1-2)[Gal(a1-3)]Gal(b1-4)GlcNAc(b1-3)GalNAc", "procedure,_shortened": "as §1"}, "[31]": {"target": "Fuc(a1-2)[Gal(a1-3)]Gal(b1-4)GlcNAc(b1-3)[Fuc(a1-2)[Gal(a1-3)]Gal(b1-4)GlcNAc(b1-6)]GalNAc", "procedure,_shortened": "as §1"}, "[32]": {"target": "Fuc(a1-2)[Gal(a1-3)]Gal(b1-4)GlcNAc(b1-6)GalNAc", "procedure,_shortened": "as §1"}, "[33]": {"target": "Fuc(a1-2)[Gal(a1-3)]Gal(b1-4)[Fuc(a1-3)]Glc", "procedure,_shortened": "as §1"}, "[34]": {"target": "Fuc(a1-2)[Gal(a1-3)]Gal(b1-4)[Fuc(a1-3)]GlcNAc", "procedure,_shortened": "as §1"}, "[35]": {"target": "Fuc(a1-2)[Gal(a1-3)]Gal(b1-4)[Fuc(a1-3)]GlcNAc(b1-3)GalNAc", "procedure,_shortened": "as §1"}}, "note": "This is one part of the list.", "data": [{"binder": "B1", "values": [{"measurement": "glycan array binding signal (z-score)", "setting": "[1]", "value": -0.074}, {"measurement": "glycan array binding signal (z-score)", "setting": "[2]", "value": -0.698}, {"measurement": "glycan array binding signal (z-score)", "setting": "[3]", "value": -1.29}, {"measurement": "glycan array binding signal (z-score)", "setting": "[4]", "value": -1}, {"measurement": "glycan array binding signal (z-score)", "setting": "[5]", "value": 0.96}, {"measurement": "glycan array binding signal (z-score)", "setting": "[6]", "value": -0.119}, {"measurement": "glycan array binding signal (z-score)", "setting": "[7]", "value": 0.076}, {"measurement": "glycan array binding signal (z-score)", "setting": "[8]", "value": -0.608}, {"measurement": "glycan array binding signal (z-score)", "setting": "[9]", "value": -0.906}, {"measurement": "glycan array binding signal (z-score)", "setting": "[10]", "value": -0.655}, {"measurement": "glycan array binding signal (z-score)", "setting": "[11]", "value": 4.22}, {"measurement": "glycan array binding signal (z-score)", "setting": "[12]", "value": -1.21}, {"measurement": "glycan array binding signal (z-score)", "setting": "[13]", "value": -0.385}, {"measurement": "glycan array binding signal (z-score)", "setting": "[14]", "value": -1.08}, {"measurement": "glycan array binding signal (z-score)", "setting": "[15]", "value": -0.883}, {"measurement": "glycan array binding signal (z-score)", "setting": "[16]", "value": -0.434}, {"measurement": "glycan array binding signal (z-score)", "setting": "Fuc(a1-2)Gal6S(b1-4)Glc", "value": 0.274}, {"measurement": "glycan array binding signal (z-score)", "setting": "[17]", "value": -0.372}, {"measurement": "glycan array binding signal (z-score)", "setting": "Fuc(a1-2)[Gal(a1-3)]Gal", "value": 0.588}, {"measurement": "glycan array binding signal (z-score)", "setting": "[18]", "value": -0.006}, {"measurement": "glycan array binding signal (z-score)", "setting": "[19]", "value": -0.745}, {"measurement": "glycan array binding signal (z-score)", "setting": "[20]", "value": -0.352}, {"measurement": "glycan array binding signal (z-score)", "setting": "[21]", "value": -0.11}, {"measurement": "glycan array binding signal (z-score)", "setting": "[22]", "value": -0.556}, {"measurement": "glycan array binding signal (z-score)", "setting": "[23]", "value": 0.58}, {"measurement": "glycan array binding signal (z-score)", "setting": "[24]", "value": -1.16}, {"measurement": "glycan array binding signal (z-score)", "setting": "[25]", "value": -1.36}, {"measurement": "glycan array binding signal (z-score)", "setting": "[26]", "value": 0.803}, {"measurement": "glycan array binding signal (z-score)", "setting": "[27]", "value": -1.04}, {"measurement": "glycan array binding signal (z-score)", "setting": "[28]", "value": 3.36}, {"measurement": "glycan array binding signal (z-score)", "setting": "[29]", "value": 1.75}, {"measurement": "glycan array binding signal (z-score)", "setting": "[30]", "value": -0.639}, {"measurement": "glycan array binding signal (z-score)", "setting": "[31]", "value": 0.078}, {"measurement": "glycan array binding signal (z-score)", "setting": "[32]", "value": 0.051}, {"measurement": "glycan array binding signal (z-score)", "setting": "[33]", "value": -0.052}, {"measurement": "glycan array binding signal (z-score)", "setting": "[34]", "value": 0.266}, {"measurement": "glycan array binding signal (z-score)", "setting": "[35]", "value": -0.96}]}]}
